Reference: article PMC10291184
These are yes or no findings as the source states them, for the method shown. In cells and extracts the contact can be indirect. Some binding calls cover weakened binding; strength is not graded here.

Sequences of proteins named here, by UniProt entry; tags and fusion partners are left off.
UniProt P25963: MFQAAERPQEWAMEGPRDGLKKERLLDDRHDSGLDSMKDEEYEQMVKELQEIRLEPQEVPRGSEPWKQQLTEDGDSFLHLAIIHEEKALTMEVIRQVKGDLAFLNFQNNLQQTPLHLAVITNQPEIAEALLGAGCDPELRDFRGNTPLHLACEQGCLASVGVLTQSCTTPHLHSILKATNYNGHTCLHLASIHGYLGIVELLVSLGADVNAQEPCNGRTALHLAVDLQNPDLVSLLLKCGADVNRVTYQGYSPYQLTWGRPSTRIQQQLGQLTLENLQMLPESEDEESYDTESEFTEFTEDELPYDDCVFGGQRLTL

Target: IκBα (human (endogenous in MCF-7 and BT-549)) (UniProt P25963)
Assay: co-IP; endogenous proteins in MCF-7 and BT-549 cell lysates (CST lysis buffer: 20 mM Tris-HCl pH 7.5, 150 mM NaCl, 1% Triton X-100); indicated antibodies overnight at 4°C, protein A/G agarose beads, washed with NETN buffer; Western blotting

B1: hexokinase 2 (HK2) (enzyme, UniProt P52789 1-917)
chain: MIASHLLAYFFTELNHDQVQKVDQYLYHMRLSDETLLEISKRFRKEMEKGLGATTHPTAAVKMLPTFVRSTPDGTEHGEFLALDLGGTNFRVLWVKVTDNGLQKVEMENQIYAIPEDIMRGSGTQLFDHIAECLANFMDKLQIKDKKLPLGFTFSFPCHQTKLDESFLVSWTKGFKSSGVEGRDVVALIRKAIQRRGDFDIDIVAVVNDTVGTMMTCGYDDHNCEIGLIVGTGSNACYMEEMRHIDMVEGDEGRMCINMEWGAFGDDGSLNDIRTEFDQEIDMGSLNPGKQLFEKMISGMYMGELVRLILVKMAKEELLFGGKLSPELLNTGRFETKDISDIEGEKDGIRKAREVLMRLGLDPTQEDCVATHRICQIVSTRSASLCAATLAAVLQRIKENKGEERLRSTIGVDGSVYKKHPHFAKRLHKTVRRLVPGCDVRFLRSEDGSGKGAAMVTAVAYRLADQHRARQKTLEHLQLSHDQLLEVKRRMKVEMERGLSKETHASAPVKMLPTYVCATPDGTEKGDFLALDLGGTNFRVLLVRVRNGKWGGVEMHNKIYAIPQEVMHGTGDELFDHIVQCIADFLEYMGMKGVSLPLGFTFSFPCQQNSLDESILLKWTKGFKASGCEGEDVVTLLKEAIHRREEFDLDVVAVVNDTVGTMMTCGFEDPHCEVGLIVGTGSNACYMEEMRNVELVEGEEGRMCVNMEWGAFGDNGCLDDFRTEFDVAVDELSLNPGKQRFEKMISGMYLGEIVRNILIDFTKRGLLFRGRISERLKTRGIFETKFLSQIESDCLALLQVRAILQHLGLESTCDDSIIVKEVCTVVARRAAQLCGAGMAAVVDRIRENRGLDALKVTVGVDGTLYKLHPHFAKVMHETVKDLAPKCDVSFLQSEDGSGKGAALITAVACRIREAGQR
binding: binds
